Article PMC6853915
No constants are given. Whether binding was seen depends on the method and setting. Some entries that bind do so weakly or less than the wild type.

Chains of the proteins cited; added tags and fusions are not shown. Residues count along the entry.
UniProt P30405, residues 30-207: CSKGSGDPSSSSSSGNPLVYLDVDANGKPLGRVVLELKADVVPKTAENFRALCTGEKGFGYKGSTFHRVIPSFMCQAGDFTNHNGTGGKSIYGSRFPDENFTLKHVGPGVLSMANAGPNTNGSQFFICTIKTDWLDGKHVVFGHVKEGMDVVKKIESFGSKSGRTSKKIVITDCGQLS
UniProt Q99714: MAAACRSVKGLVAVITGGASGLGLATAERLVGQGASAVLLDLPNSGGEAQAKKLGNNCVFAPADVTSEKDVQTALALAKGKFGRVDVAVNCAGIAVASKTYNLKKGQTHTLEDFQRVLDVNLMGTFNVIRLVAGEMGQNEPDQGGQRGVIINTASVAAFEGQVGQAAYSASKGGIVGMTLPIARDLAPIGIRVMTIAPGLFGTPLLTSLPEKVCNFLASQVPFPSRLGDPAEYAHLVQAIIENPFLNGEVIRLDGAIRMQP

Target: cyclophilin D (human) (UniProt P30405)
Test: SPR; as a1, but running buffer without added K+, Mg2+ or Ca2+ (0 mM; 10 mM HEPES, 200 μg/ml BSA, 5 mM Na+), pH 7.4 or 7.8, 25 °C; both purified

In the case of “17beta-hydroxysteroid dehydrogenase type 10 (from UniProt Q99714 1-261) (enzyme)”, the binding is reported as “binds weakly”.
